In patent US20190041396A1:
Numbering of substitutions follows the chain as printed. Results are given in words; binding and its absence hold for the method and conditions named. Binding calls can cover weak binding; strength is not graded here. One block for each binder: values may come before it.

Amino acid sequences for entries named in this document (tags omitted). A change or cut given only in a name is not applied to a line headed by its entry.
UniProt P08887: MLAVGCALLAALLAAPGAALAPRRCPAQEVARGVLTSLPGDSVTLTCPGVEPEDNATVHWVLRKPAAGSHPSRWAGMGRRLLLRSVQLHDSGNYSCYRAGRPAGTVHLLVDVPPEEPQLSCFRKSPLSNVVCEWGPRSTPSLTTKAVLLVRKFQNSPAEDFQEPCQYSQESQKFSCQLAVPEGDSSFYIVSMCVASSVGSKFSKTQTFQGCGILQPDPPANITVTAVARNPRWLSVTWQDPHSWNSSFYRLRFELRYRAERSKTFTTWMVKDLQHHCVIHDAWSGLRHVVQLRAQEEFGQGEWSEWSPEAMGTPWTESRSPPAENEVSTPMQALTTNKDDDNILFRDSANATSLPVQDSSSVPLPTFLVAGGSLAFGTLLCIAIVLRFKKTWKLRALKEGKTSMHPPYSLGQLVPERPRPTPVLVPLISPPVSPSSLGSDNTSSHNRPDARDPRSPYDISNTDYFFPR

Columns and labels:
[1] = molecular target: soluble human IL-6 receptor (hsIL-6R) (human) (UniProt P08887); assay: SPR (Biacore T100); antibody captured on protein A/G CM5 chip, human IL-6 receptor injected for 3 min; 1.2 mM CaCl2, pH 7.4, 37 C
[2] = molecular target: soluble human IL-6 receptor (hsIL-6R) (human) (UniProt P08887); assay: SPR (Biacore T100); antibody captured on protein A/G CM5 chip, human IL-6 receptor injected for 3 min; 3 µM CaCl2, pH 7.4, 37 C
[3] = molecular target: soluble human IL-6 receptor (hsIL-6R) (human) (UniProt P08887); assay: SPR, Biacore T100, antibody captured on protein A/G, human IL-6 receptor as analyte, 1.2 mM against 3 µM CaCl2, pH 7.4, 37 C
[4] = molecular target: soluble human IL-6 receptor (hsIL-6R) (human) (UniProt P08887); assay: SPR, Biacore T100, antibody captured on protein A/G, human IL-6 receptor as analyte, pH 7.4 against pH 6.0, 1.2 mM CaCl2, 37 C
[5] = molecular target: soluble human IL-6 receptor (hsIL-6R) (human) (UniProt P08887); assay: SPR (Biacore T100); antibody (about 300 RU) captured on protein A/G CM5 chip, human IL-6 receptor injected for 3 min; pH 7.4, 1.2 mM CaCl2, 37 C

binding [1]: binds
binding [2]: binds
binding [3]: binds
B1: 6RC1IgG_012 antibody (antibody, V domains shown)
VH: QVQLVQSGAEVKKPGASVKVSCKASGYTFTSYGISWVRQAPGQGLEWMGWISAYNGNTNYAQKLQGRVTMTTDTSTSTAYMELRSLRSDDTAVYYCARATYYYDSSAPAFDIWGQGTMVTVSS
VL: DIQMTQSPSSLSASVGDRVTITCRASQSIEDDLAWYQQKPGKAPKLLIYEASTLQSGVPSRFSGSGSGTDFTLTISSLQPEDFATYYCQQHDDSPLTFGQGTKVEIKR

binding [4]: binds
binding [5]: binds
B2: 6RpH#03 antibody (antibody, human IgG1, kappa, V domains shown)
VH: EVQLVQSGGGLVQPGGSLRLSCAASGFTFSNAWMIWVRQAPGKGLEWVGRIKSKVDGGTTDYAAPVKGRFTISRDDSKNTLYLQMDSLKTEDTAVYYCVADVPASNPYGFDYWGQGTLVTVSS
VL: B1 VL with E30N, D31S, D32H, A34N, E50D, T53H, D92N, D93N, S94Y
